Drawing on paper doi:10.1101/506113 (bioRxiv, 2018), this text covers binding for 4 substances.

Chains of the proteins cited; added tags and fusions are not shown. Lines headed by an entry give the natural chain unless they say otherwise; changes in a name come on top.
UniProt O60238: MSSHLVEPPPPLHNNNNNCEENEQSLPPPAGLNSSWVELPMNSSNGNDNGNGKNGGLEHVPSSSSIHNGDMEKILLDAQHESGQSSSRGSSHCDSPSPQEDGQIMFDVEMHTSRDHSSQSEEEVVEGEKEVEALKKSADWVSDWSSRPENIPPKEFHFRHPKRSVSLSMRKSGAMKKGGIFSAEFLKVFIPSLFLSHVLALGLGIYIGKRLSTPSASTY

Assay [1] deals with V5-tagged NIX (V5-NIX), transfected in HeLa.Kyoto cells (UniProt O60238). Description: co-IP.
Assay [2] shares this target. The assay is described as follows: proximity ligation.
In assay [3] the target is NIXΔTA (NIX deficient in the tail anchor region, residues 188 to 208), NanoBiT fusion (UniProt O60238). Description: split reporter.
The target in assay [4] is LgB-NIX (NIX with Large BiT at its N-terminal end) (UniProt O60238). Description: split reporter.

No constants are given. Whether binding was seen depends on the method and setting. Binding seen in cells or lysates may run through a third protein. Some results given as binding are weak or reduced against the parent protein; the word gives no strength.

Take “vIRF-1 F10A, transfected in HeLa.Kyoto cells (from UniProt F5HF68 1-449)”: the binding result in assay [1] was “no binding”. For “vIRF-1 wild type, transfected in HeLa.Kyoto cells (from UniProt F5HF68 1-449)”, the binding result in assay [1] and in assay [2] was “binds” throughout.

Regarding “vIRF-1-SmB (vIRF-1 with Small BiT at its C-terminal end) (from UniProt F5HF68 1-449)”, the binding entry in assay [3] was “no binding”. “SmB-vIRF-1 (vIRF-1 with Small BiT at its N-terminal end) (from UniProt F5HF68 1-449)”: in assay [4], the binding result was “binds”.
